Data on 26 compounds can be found in PubChem BioAssay AID256 (DTP/NCI, 2004).

In the assay the test system is CD2F1 mice, L1210 leukemia ip, survival T/C. Nature of the assay: NCI In Vivo Anticancer Drug Screen. Data for tumor model L1210 Leukemia (intraperitoneal) in CD2F1 (CDF1) mice. The settings on record: higher T/C = longer survival. Put shortly: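 Activity against a transplanted murine tumor was judged by comparing the compound group with a vehicle group. The outcome in the treated animals was divided by that in the controls.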

Where [1] appears, read: T/C endpoint: mean survival time, dose: 100.0 mg/kg/injection, schedule: Q04DX003 (ip), vehicle: saline with Tween-80.
Where [2] appears, read: T/C endpoint: mean survival time, dose: 200.0 mg/kg/injection, schedule: Q01DX009 (ip), vehicle: saline with Tween-80.
Where [3] appears, read: T/C endpoint: mean survival time, dose: 400.0 mg/kg/injection, schedule: Q01DX001 (ip), vehicle: saline.
[4] abbreviates: T/C endpoint: mean survival time, dose: 200.0 mg/kg/injection, schedule: Q04DX003 (ip), vehicle: saline with Tween-80.
The mark [5] stands for this setting: T/C endpoint: mean survival time, dose: 400.0 mg/kg/injection, schedule: Q04DX003 (ip), vehicle: saline with Tween-80.
Where [6] appears, read: T/C endpoint: mean survival time, dose: 100.0 mg/kg/injection, schedule: Q04DX003 (ip), vehicle: saline.

Each structure is given as a SMILES string. The list does not hold the whole screen: it gathers tests that were run many times, whatever their T/C, doses with no T/C, and many T/C values between a quarter and a half above the control. Further doses and runs are listed elsewhere. T/C: endpoint of the treated group in % of that of the vehicle group. Some entries give survivors of the animals treated and no T/C: the source files T/C as zero there, which appears to mark a toxic dose or a test without result, not a measured value. Some doses without a T/C left all or most animals alive at the check, yet need not have been tolerated: the source hardly ever lists a survival T/C far under the control, and the zero likely stands for such cases as well. Survivors were counted at the toxicity check, usually on the fifth day, unless a day is given; later deaths do not show. Schedules are NCI's codes, taken here to give the interval after Q, in days (D) or hours (H), and the number of doses after X. Some entries hold several experiments; the values are given in rising order. For survival time, the PubChem record calls one and a half times the control and up active, and a quarter to a half above the control has no call in these data; cut-offs in other NCI protocols can differ. Some T/C values are followed by the survivors on the day toxicity was checked, most often the fifth; without a count, all were alive then.

For the compound `Clc1c(Br)nc(Br)nc1C(Cl)(Cl)Cl`, the survivor count reads like this: (T/C endpoint: mean survival time, dose: 25.0 mg/kg/injection, schedule: Q04DX003 (ip), vehicle: saline with Tween-80) 4 of 6; (T/C endpoint: mean survival time, dose: 50.0 mg/kg/injection, schedule: Q04DX003 (ip), vehicle: saline with Tween-80) 2 of 6; under setting [1], 0 of 6.

As to `C/C=C\c1ccc(OCCOC(=O)Nc2cc(Cl)c(OC)cc2OC)c(OC)c1`, the survivor count under setting [2] is listed as 3 of 3.

Turning to `CCCNC(C)(C)C(SS)c1ccc(C(F)(F)F)cc1` (centres undefined), for the setting “T/C endpoint: mean survival time, dose: 100.0 mg/kg/injection, schedule: Q04DX003 (ip), vehicle: other”, the survivor count is given as 6 of 6.

With `c1ccc(CCNCc2ccccn2)nc1`, the survivor count by setting is: (T/C endpoint: mean survival time, dose: 200.0 mg/kg/injection, schedule: Q01DX001 (ip), vehicle: saline) 0 of 6; under setting [3], 0 of 6.

As to `O=C(CCOP(=O)(N1CC1)N1CC1)OCc1ccccc1`, the survivor count (T/C endpoint: mean survival time, dose: 62.5 mg/kg/injection, schedule: Q01DX001 (ip), vehicle: Klucel (hydroxypropylcellulose) (HPC)) was 2 of 6 and 3 of 6; the survivor count (T/C endpoint: mean survival time, dose: 125.0 mg/kg/injection, schedule: Q01DX001 (ip), vehicle: Klucel (hydroxypropylcellulose) (HPC)) is 0 of 6; the survivor count (T/C endpoint: mean survival time, dose: 250.0 mg/kg/injection, schedule: Q01DX001 (ip), vehicle: Klucel (hydroxypropylcellulose) (HPC)) was 0 of 6; the survivor count (T/C endpoint: mean survival time, dose: 500.0 mg/kg/injection, schedule: Q01DX001 (ip), vehicle: Klucel (hydroxypropylcellulose) (HPC)) is on record as 0 of 6; the survivor count (T/C endpoint: mean survival time, dose: 1000.0 mg/kg/injection, schedule: Q01DX001 (ip), vehicle: Klucel (hydroxypropylcellulose) (HPC)) is given as 0 of 6.

In the case of `CC(C(=O)c1ccccc1)C(c1ccccc1)N1CCCCC1` (centres undefined), the survivor count (T/C endpoint: mean survival time, dose: 200.0 mg/kg/injection, schedule: Q01DX001 (ip), vehicle: saline with Tween-80) was 6 of 6.

With `C=C(C)C(=O)OCC(O)C[N+](C)(C)C` (centres undefined), the survivor count under setting [4] is given as 4 of 6.

Take `Cc1cc(O)c2c(c1O)C(=O)C13C(=C2O)C(=O)C2C(O)C1C1C(O)C3C(=O)C3=C(O)c4c(O)cc(C)c(O)c4C(=O)C321` (centres undefined): the survivor count was 5 of 6 under setting [1]; 3 of 6 under setting [4]; 5 of 6 under setting [5]; 1 of 6 and 2 of 6 (T/C endpoint: median survival time, dose: 6.25 mg/kg/injection, schedule: Q01DX009 (ip), vehicle: saline with Tween-80); 0 of 6 (T/C endpoint: median survival time, dose: 12.5 mg/kg/injection, schedule: Q01DX009 (ip), vehicle: saline with Tween-80); 0 of 6 (T/C endpoint: median survival time, dose: 25.0 mg/kg/injection, schedule: Q01DX009 (ip), vehicle: saline with Tween-80). Further, the survivor count (T/C endpoint: median survival time, dose: 50.0 mg/kg/injection, schedule: Q01DX009 (ip), vehicle: saline with Tween-80) is recorded as 0 of 6.

In the case of `CCO/C=C1\SC(=S)N(c2ccccc2C)C1=O`, the survivor count (T/C endpoint: mean survival time, dose: 400.0 mg/kg/injection, schedule: Q01DX009 (ip), vehicle: saline with Tween-80) was 4 of 6.

`CCCCn1c2ccccc2c2ccccc21`: under setting [4], the survivor count is on record as 6 of 6.

Turning to `O=C(CCl)Cc1ccccc1`, the survivor count under setting [3] is 1 of 6.

For the compound `NCCCNCCCCNCCCN`, the survivor count (T/C endpoint: median survival time, dose: 124.0 mg/kg/injection, schedule: Q04DX003 (ip), vehicle: saline) is recorded as 0 of 4.

In the case of `CC(=O)Nc1ccc(/C=N\NC(=O)CNC(=O)Nc2ccc(F)cc2)cc1`, under setting [2], the survivor count is given as 3 of 3.

Turning to `Cn1c(=O)[nH]c2c(nc(-c3ccc4c(c3)OCO4)n2C)c1=O`, where the note is “T/C endpoint: mean survival time, dose: 125.0 mg/kg/injection, schedule: Q01DX005 (ip), vehicle: other”, the survivor count is 3 of 3.

Consider `O=C1C(N2CC2)=C(N2CCCC(O)C2)C(=O)C(N2CC2)=C1N1CCCC(O)C1` (centres undefined), for which the T/C (T/C endpoint: mean survival time, dose: 1.0 mg/kg/injection, schedule: Q01DX009 (ip), vehicle: saline) was 134 and 143 % of control; the T/C (T/C endpoint: mean survival time, dose: 4.0 mg/kg/injection, schedule: Q01DX009 (ip), vehicle: saline) is 141 and 145 % of control.

With `CC(=O)OCCN1CCN(CC/C=C2\c3ccccc3Sc3ccc(Cl)cc32)CC1`, the survivor count reads like this: under setting [1], 0 of 6; under setting [6], 2 of 6; under setting [4], 0 of 6; under setting [5], 0 of 6.

`CNC(=O)/C=C/C1=CN2C(=O)c3ccc(C)c(O)c3NC(OC)C2C1` (centres undefined): the T/C (T/C endpoint: mean survival time, dose: 0.2 mg/kg/injection, schedule: Q01DX009 (ip), vehicle: saline) is 129 % of control. Also, for the setting “T/C endpoint: mean survival time, dose: 0.4 mg/kg/injection, schedule: Q01DX009 (ip), vehicle: saline”, the survivor count is 2 of 10 and 6 of 6.

In the case of `CC(=O)NNC(=O)c1ccccc1N=NN(C)C`, for the setting “T/C endpoint: mean survival time, dose: 75.0 mg/kg/injection, schedule: Q01DX009 (ip), vehicle: Klucel (hydroxypropylcellulose) (HPC)”, the T/C was 126 % of control. Further, the survivor count (T/C endpoint: mean survival time, dose: 300.0 mg/kg/injection, schedule: Q01DX009 (ip), vehicle: Klucel (hydroxypropylcellulose) (HPC)) was 0 of 6 and 1 of 6.

With `CCCCCOc1ccccc1Cl`, the survivor count (T/C endpoint: mean survival time, dose: 400.0 mg/kg/injection, schedule: Q04DX002 (ip), vehicle: saline with Tween-80) was 0 of 3.

On to `CC(=O)NC1C=CC(=O)O1` (centres undefined), for which the survivor count (T/C endpoint: mean survival time, dose: 75.0 mg/kg/injection, schedule: Q01DX001 (ip), vehicle: saline) is 0 of 6.

As for `CC(C)N(CC(=O)O)CC(=O)O`, the survivor count under setting [3] was 2 of 4.

Take `NCC1OC(n2cnc3c(N)ncnc32)C(O)C1O` (centres undefined): the survivor count (T/C endpoint: mean survival time, dose: 200.0 mg/kg/injection, schedule: Q01DX005 (ip), vehicle: Klucel (hydroxypropylcellulose) (HPC)) was 3 of 6.

On to `O=C(O)c1ccc(Nc2c3ccccc3nc3ccccc23)cc1`, for which the T/C reads like this: (T/C endpoint: mean survival time, dose: 20.0 mg/kg/injection, schedule: Q01DX009 (ip), vehicle: Klucel (hydroxypropylcellulose) (HPC)) 127 % of control; (T/C endpoint: mean survival time, dose: 30.0 mg/kg/injection, schedule: Q01DX009 (ip), vehicle: Klucel (hydroxypropylcellulose) (HPC)) 147 % of control; (T/C endpoint: mean survival time, dose: 44.0 mg/kg/injection, schedule: Q04DX003 (ip), vehicle: Klucel (hydroxypropylcellulose) (HPC)) 127 % of control; (T/C endpoint: mean survival time, dose: 66.0 mg/kg/injection, schedule: Q04DX003 (ip), vehicle: Klucel (hydroxypropylcellulose) (HPC)) 136 % of control; (T/C endpoint: mean survival time, dose: 75.0 mg/kg/injection, schedule: Q04DX002 (ip), vehicle: Klucel (hydroxypropylcellulose) (HPC)) 140 % of control; (T/C endpoint: mean survival time, dose: 88.0 mg/kg/injection, schedule: Q04DX002 (ip), vehicle: Klucel (hydroxypropylcellulose) (HPC)) 139 % of control. Also, the T/C was 134 % of control (T/C endpoint: mean survival time, dose: 133.0 mg/kg/injection, schedule: Q01DX001 (ip), vehicle: Klucel (hydroxypropylcellulose) (HPC)); 134 % of control (T/C endpoint: mean survival time, dose: 150.0 mg/kg/injection, schedule: Q01DX001 (ip), vehicle: Klucel (hydroxypropylcellulose) (HPC)); 147 % of control (T/C endpoint: mean survival time, dose: 200.0 mg/kg/injection, schedule: Q01DX001 (ip), vehicle: Klucel (hydroxypropylcellulose) (HPC)); 147 % of control [5 of 6 alive] (T/C endpoint: mean survival time, dose: 450.0 mg/kg/injection, schedule: Q01DX001 (ip), vehicle: Klucel (hydroxypropylcellulose) (HPC)). In addition, the survivor count reads like this: (T/C endpoint: mean survival time, dose: 150.0 mg/kg/injection, schedule: Q01DX009 (ip), vehicle: Klucel (hydroxypropylcellulose) (HPC)) 6 of 6; (T/C endpoint: mean survival time, dose: 600.0 mg/kg/injection, schedule: Q01DX001 (ip), vehicle: Klucel (hydroxypropylcellulose) (HPC)) 0 of 6; (T/C endpoint: mean survival time, dose: 600.0 mg/kg/injection, schedule: Q04DX002 (ip), vehicle: Klucel (hydroxypropylcellulose) (HPC)) 1 of 6; (T/C endpoint: mean survival time, dose: 600.0 mg/kg/injection, schedule: Q04DX003 (ip), vehicle: Klucel (hydroxypropylcellulose) (HPC)) 2 of 6.

For the compound `CCCC[n+]1ccccc1Cc1ccccc1`, the survivor count was 0 of 3 (T/C endpoint: mean survival time, dose: 50.0 mg/kg/injection, schedule: Q04DX003 (ip), vehicle: saline) and 0 of 3 under setting [6].

With `C[n+]1cccc(C(=O)NCCc2c[nH]c3ccccc23)c1`, the survivor count (T/C endpoint: mean survival time, dose: 150.0 mg/kg/injection, schedule: Q04DX003 (ip), vehicle: acetone) is recorded as 1 of 6.

Take `CCC(C)CCC/C=C/CC(=O)NC(CC(=O)O)C(=O)NC(C(=O)NC(CC(=O)O)C(=O)NCC(=O)NC(CC(=O)O)C(=O)NCC(=O)NC(C(=O)NC(C(=O)N1CCCC1C(=O)NC(C)C1NC(=O)C2CCCCN2C1=O)C(C)C)C(C)N)C(C)C(=O)O` (centres undefined): under “T/C endpoint: mean survival time, dose: 400.0 mg/kg/injection, schedule: Q01DX009 (ip), vehicle: saline + alcohol”, the survivor count is 1 of 6.
